Test results reported in paper doi:10.1101/2023.08.08.552343.
Results are given in words; binding and its absence hold for the method and conditions named. For some of these results: Binding seen in cells or lysates may run through a third protein. Some results given as binding are weak or reduced against the parent protein; the word gives no strength. For some of these results: Sequences can lack the tags named with a protein.

Sequences of proteins named here, by UniProt entry; tags and fusion partners are left off. Residues count along the entry.
UniProt Q9NXA8, residues 37-310: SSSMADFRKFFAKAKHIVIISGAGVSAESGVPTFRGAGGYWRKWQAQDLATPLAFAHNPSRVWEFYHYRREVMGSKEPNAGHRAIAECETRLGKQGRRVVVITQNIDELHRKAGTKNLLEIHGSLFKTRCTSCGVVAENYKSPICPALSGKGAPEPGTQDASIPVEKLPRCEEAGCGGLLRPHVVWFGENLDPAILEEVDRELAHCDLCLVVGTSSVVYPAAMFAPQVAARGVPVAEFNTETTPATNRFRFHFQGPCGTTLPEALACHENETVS
UniProt P31751: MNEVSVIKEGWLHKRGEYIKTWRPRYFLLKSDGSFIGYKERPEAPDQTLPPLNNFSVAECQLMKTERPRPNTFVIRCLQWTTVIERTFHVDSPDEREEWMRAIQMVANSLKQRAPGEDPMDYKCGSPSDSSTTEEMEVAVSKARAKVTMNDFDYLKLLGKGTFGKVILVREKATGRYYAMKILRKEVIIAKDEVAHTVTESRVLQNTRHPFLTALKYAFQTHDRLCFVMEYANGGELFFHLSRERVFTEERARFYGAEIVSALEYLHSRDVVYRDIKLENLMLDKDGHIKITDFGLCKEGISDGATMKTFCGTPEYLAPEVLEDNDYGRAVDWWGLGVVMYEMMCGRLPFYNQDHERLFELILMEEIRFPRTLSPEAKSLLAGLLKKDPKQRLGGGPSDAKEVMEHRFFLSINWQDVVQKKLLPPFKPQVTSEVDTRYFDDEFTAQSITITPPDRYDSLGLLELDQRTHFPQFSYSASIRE

What was measured:
[1] = target: Sirtuin 5 (SIRT5) on the HuProt v3.1 human proteome array (human) (UniProt Q9NXA8); test: peptide or protein array
[2] = target: T1, Synaptotagmin Like 1 (SYTL1) on the HuProt v3.1 human proteome array (human) (UniProt Q8IYJ3); test: peptide or protein array
T1 sequence: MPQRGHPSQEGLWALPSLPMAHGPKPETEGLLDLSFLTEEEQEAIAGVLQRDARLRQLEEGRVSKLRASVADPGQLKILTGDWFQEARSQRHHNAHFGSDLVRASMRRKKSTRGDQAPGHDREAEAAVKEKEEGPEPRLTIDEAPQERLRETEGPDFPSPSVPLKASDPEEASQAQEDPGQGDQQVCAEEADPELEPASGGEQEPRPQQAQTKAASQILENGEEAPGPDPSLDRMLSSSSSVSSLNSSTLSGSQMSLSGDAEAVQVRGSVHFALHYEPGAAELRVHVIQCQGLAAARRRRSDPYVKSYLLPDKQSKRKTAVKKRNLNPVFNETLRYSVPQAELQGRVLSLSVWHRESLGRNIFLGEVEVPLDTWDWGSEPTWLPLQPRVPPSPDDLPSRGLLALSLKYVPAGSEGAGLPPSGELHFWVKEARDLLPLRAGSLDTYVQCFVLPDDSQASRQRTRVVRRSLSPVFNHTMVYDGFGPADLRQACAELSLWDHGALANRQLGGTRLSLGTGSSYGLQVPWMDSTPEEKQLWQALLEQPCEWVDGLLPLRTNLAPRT

EGFP-AKT2 (human) = EGFP-AKT2 (human) (UniProt P31751); test: co-IP

Molecule | binding [1] | binding [2] | binding (EGFP-AKT2 (human))
recombinant AKT2 (from UniProt P31751 1-481) (enzyme) | binds | binds | –
Synaptotagmin Like 1 (SYTL1) found with AKT2 in the pulldown (protein, UniProt Q8IYJ3 1-562) MPQRGHPSQEGLWALPSLPMAHGPKPETEGLLDLSFLTEEEQEAIAGVLQRDARLRQLEEGRVSKLRASVADPGQLKILTGDWFQEARSQRHHNAHFGSDLVRASMRRKKSTRGDQAPGHDREAEAAVKEKEEGPEPRLTIDEAPQERLRETEGPDFPSPSVPLKASDPEEASQAQEDPGQGDQQVCAEEADPELEPASGGEQEPRPQQAQTKAASQILENGEEAPGPDPSLDRMLSSSSSVSSLNSSTLSGSQMSLSGDAEAVQVRGSVHFALHYEPGAAELRVHVIQCQGLAAARRRRSDPYVKSYLLPDKQSKRKTAVKKRNLNPVFNETLRYSVPQAELQGRVLSLSVWHRESLGRNIFLGEVEVPLDTWDWGSEPTWLPLQPRVPPSPDDLPSRGLLALSLKYVPAGSEGAGLPPSGELHFWVKEARDLLPLRAGSLDTYVQCFVLPDDSQASRQRTRVVRRSLSPVFNHTMVYDGFGPADLRQACAELSLWDHGALANRQLGGTRLSLGTGSSYGLQVPWMDSTPEEKQLWQALLEQPCEWVDGLLPLRTNLAPRT | – | – | binds
synaptosome-associated protein 23 (SNAP23) (protein, UniProt O00161 1-211) MDNLSSEEIQQRAHQITDESLESTRRILGLAIESQDAGIKTITMLDEQKEQLNRIEEGLDQINKDMRETEKTLTELNKCCGLCVCPCNRTKNFESGKAYKTTWGDGGENSPCNVVSKQPGPVTNGQLQQPTTGAASGGYIKRITNDAREDEMEENLTQVGSILGNLKDMALNIGNEIDAQNPQIKRITDKADTNRDRIDIANARAKKLIDS | – | – | binds
